According to patent US5306808A, “Peptide derivatives having vasodilating activity” (Takeda Chemical Industries, Ltd., priority 1991, dated 1994):
Part of at least one peptide drawing is inferred or uncertain, most often the ends. Where a SMILES comes first, the peptide text is derived from it. Bridges are numbered along the chain shown (N, C = ends).

Experiments:
endothelin receptor = assay: Assay of affinity for receptor (I125-ET-1 binding to porcine myocardial membrane fraction); conditions: ET-1 = 100
Protocol: A membrane fraction prepared from the porcine heart was diluted to 0.15 mg/ml by using a buffer solution [PBS (pH 7.4) containing 0.5 mM CaCl2, 1.0 mM MgCl2, 0.02% NaN3, 0.1% BSA (fraction V, Sigma), 0.1 mM PMSF and 0.1 μg/ml pepstatin (binding buffer)] for assay, and 100 μl of the resulting suspension of the membrane fraction was poured into each assay tube to use for assay. To this suspension of the membrane fraction were added 2 μl of an endothelin-1 solution labeled with 5 μM radioactive iodine. Further, 3 μl of a test peptide solution was added thereto, followed by maintenance at a temperature of 25° C. for 1 hour. Then, the resulting suspension was diluted with 900 μl of the buffer solution for assay cooled with ice, and thereafter separated into a supernatant and a precipitate by centrifugation at 12,000×g for 10 minutes. Cell membranes and an endothelin receptor embedded therein were contained in the precipitate, and radioactive iodine-labeled endothelin combined with the receptor was also recovered in the precipitate. Accordingly, the amount of radioactive iodine-labeled endothelin combined with the endothelin receptor was determined by measuring the amount of radioactive iodine contained in the precipitate with a gamma-ray counter. Compounds in which the affinity for the endothelin receptor is high and the maximum constriction is not high are antagonists. […]

porcine coronary artery = type: cell-based
Protocol: Each of helical strips 2 mm×15 mm prepared from the coronary right ramus circumflexus from which the adventitial connective tissues and the endothelial cells were removed was set to each of 4 ml organ baths. Its tension was detected by a force displacement transducer UL-10GR (Minebea), and recorded by a polygraph (NEC Sanei). The organ baths were maintained at 37° C., and filled with a Krebs-Henseleit solution (composition:118 mM NaCl, 4.7 mM KCl, 2.5 mM CaCl2, 1.2 mM KH2 PO4, 25.0 mM NaHCO3, 1.2 mM MgSO4, 10.0 mM glucose) gassed with 95% O2 and 5% CO2.
A tension of 1.25 to 1.5 g was applied to each of the strips, followed by equilibration for 1.5 hours. 60 mM KCl was repeatedly applied thereto at intervals of 30 minutes until the constriction response became constant. After additional equilibration for 1.5 hours, a sample for assay was given. The constriction of the strips was normalized by the constriction response of the individual strips to 60 mM KCl and statistically processed.
(2) As to the antagonist property or the agonist property of the peptide derivatives of present invention to endothelin, the affinity for an endothelin receptor and the constrictor activity to porcine coronary smooth muscles (according to the method described in (1) described above) were assayed. The affinity for the receptor was assayed by the following method.

Compound | Receptor binding activity (Relative potency) (endothelin receptor) | Constrictor activity (Relative potency) (porcine coronary artery; ET-1 = 100) | Maximum Constriction (% 60 mM KCl) (porcine coronary artery; normalized to constriction response to 60 mM KCl)
CC[C@H](C)[C@H](NC(=O)[C@H](CC(=O)O)NC(=O)[C@H](CC(C)C)NC(=O)[C@@H]1CSSC[C@H](N)C(=O)N[C@@H](CO)C(=O)N[C@@H](C)C(=O)N[C@@H](CO)C(=O)N[C@@H](CO)C(=O)N[C@@H](CC(C)C)C(=O)N[C@@H](CCSC)C(=O)N[C@@H](CC(=O)O)C(=O)N[C@@H](CCCCN)C(=O)N[C@@H](CCC(=O)O)C(=O)N[C@@H](C)C(=O)N[C@@H](C(C)C)C(=O)N[C@@H](Cc2ccc(O)cc2)C(=O)N[C@@H](Cc2ccccc2)C(=O)N1)C(=O)N[C@H](C(=O)N[C@@H](Cc1c[nH]c2ccccc12)C(=O)O)[C@@H](C)CC [Refl, [Ala^3,11, des His^16]-ET-1, reference compound] (H-CSASSLMDKEAVYFCLDIIW-OH; disulfide 1-15) | 0 |  | 
CC[C@H](C)[C@H](NC(=O)[C@H](CC(=O)O)NC(=O)[C@H](CC(C)C)NC(=O)[C@H](Cc1c[nH]cn1)NC(=O)[C@@H]1CSSC[C@H](N)C(=O)N[C@@H](CO)C(=O)N[C@@H](C)C(=O)N[C@@H](CO)C(=O)N[C@@H](CO)C(=O)N[C@@H](CC(C)C)C(=O)N[C@@H](CCSC)C(=O)N[C@@H](CC(=O)O)C(=O)N[C@@H](CCCCN)C(=O)N[C@@H](CCC(=O)O)C(=O)N[C@@H](C)C(=O)N[C@@H](C(C)C)C(=O)N[C@@H](Cc2ccc(O)cc2)C(=O)N[C@@H](Cc2ccccc2)C(=O)N1)C(=O)N[C@H](C(=O)N[C@@H](Cc1c[nH]c2ccccc12)C(=O)O)[C@@H](C)CC [[Ala^3,^11]-ET-1, reference compound] (H-CSASSLMDKEAVYFCHLDIIW-OH; disulfide 1-15) | 2.4 | 57 | 120
